Experimental data reported in US9993553B2, “Methods and compositions for targeted release of molecules from nanoscale carriers” (The Regents of the University of California, priority 2013, dated 2018).
Values joined by “and” are separate entries in the source; they are usually repeats but may differ in a detail not shown here. Identical values can stand only once.

System: MCF-7 cells
Assay: Flow cytometry (fluorometry-calibrated) of DOX uptake and X-ray triggered release in cells
Assay type: cell-based
Conditions: 12 hours incubation, 100 nM DOX

SMILES: COc1cccc2c1C(=O)c1c(O)c3c(c(O)c1C2=O)C[C@@](O)(C(=O)CO)C[C@@H]3O[C@H]1C[C@H](N)[C@H](O)[C@H](C)O1 [DOX, doxorubicin]
- DOX uptake, average number per cell: ~24 million per cell and 24 ± 2.5 million per cell
